pIC50: −log10 of the molar value. Structures can show the parent of a compound that is named as a salt.
How the values were obtained:
[1] = test system: SARS-CoV-2; experiment: microbe, parasite or virus in culture; assay type: functional, organism-based, Chlorocebus sabaeus; details: Severe acute respiratory syndrome coronavirus 2, Vero C1008, 72 h
[2] = test system: SARS-CoV-2; experiment: microbe, parasite or virus in culture; assay type: functional, organism-based, Chlorocebus sabaeus; details: Severe acute respiratory syndrome coronavirus 2, Vero C1008, 72 h; remark: listed apart in the source

| SMILES | pIC50 [1] | pIC50 [2] |
| --- | --- | --- |
| CN(C)CCCN1c2ccccc2CCc2ccc(Cl)cc21 [CLOMIPRAMINE HYDROCHLORIDE] | 5.25 | 5.12 |
| OCCN1CCN(CCCN2c3ccccc3Sc3ccc(C(F)(F)F)cc32)CC1 [FLUPHENAZINE HYDROCHLORIDE] | 5.20 | 5.05 |

From ChEMBL document CHEMBL4303087, “Broad anti-coronaviral activity of FDA approved drugs against SARS-CoV-2 in vitro and SARS-CoV in vivo” (2020)
